From publication PMC5841321
No constants are given. Whether binding was seen depends on the method and setting. Binding seen in cells or lysates may run through a third protein. A yes stands for co-enrichment or nearness to the bait. Other partners may have been found.

T1: E3 ubiquitin-protein ligase Midline-1 (UniProt O15344)
T1 sequence: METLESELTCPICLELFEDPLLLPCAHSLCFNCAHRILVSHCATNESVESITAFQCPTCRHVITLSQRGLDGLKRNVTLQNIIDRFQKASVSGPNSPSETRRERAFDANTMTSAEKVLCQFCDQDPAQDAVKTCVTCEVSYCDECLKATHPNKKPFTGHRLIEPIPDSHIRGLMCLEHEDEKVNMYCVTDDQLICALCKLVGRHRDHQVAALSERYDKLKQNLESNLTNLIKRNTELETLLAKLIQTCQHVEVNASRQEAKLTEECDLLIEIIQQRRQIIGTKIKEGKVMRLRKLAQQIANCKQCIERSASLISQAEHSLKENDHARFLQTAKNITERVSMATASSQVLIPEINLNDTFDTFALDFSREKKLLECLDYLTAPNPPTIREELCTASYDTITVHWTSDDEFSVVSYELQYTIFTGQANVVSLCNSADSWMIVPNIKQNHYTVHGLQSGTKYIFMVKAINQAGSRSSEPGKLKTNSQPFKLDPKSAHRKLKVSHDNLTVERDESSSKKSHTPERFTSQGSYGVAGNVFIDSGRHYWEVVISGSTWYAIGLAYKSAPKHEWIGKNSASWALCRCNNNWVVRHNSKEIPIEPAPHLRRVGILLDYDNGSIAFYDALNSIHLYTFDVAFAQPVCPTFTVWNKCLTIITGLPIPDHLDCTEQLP


What follows are binders tested against T1, E3 ubiquitin-protein ligase Midline-1 (assay: affinity purification with mass spectrometry; MID1-FLAG expressed in HEK293T, lysate in TKM buffer (20 mM Tris pH 7.4, 100 mM KCl, 5 mM MgCl2, 0.5% NP40, 1 mM DTT), anti-FLAG M1 agarose overnight at 4 °C, 6 washes; untransfected cells as control; Q-Exactive, MaxQuant, 1% FDR).

binding	Binder
binds	Serine/threonine-protein phosphatase 6 reg. ankyrin repeat subunit A (protein, UniProt O15084 1-1053) MAFLKLRDQPSLVQAIFNGDPDEVRALIFKKEDVNFQDNEKRTPLHAAAYLGDAEIIELLILSGARVNAKDSKWLTPLHRAVASCSEEAVQVLLKHSADVNARDKNWQTPLHIAAANKAVKCAEALVPLLSNVNVSDRAGRTALHHAAFSGHGEMVKLLLSRGANINAFDKKDRRAIHWAAYMGHIEVVKLLVSHGAEVTCKDKKSYTPLHAAASSGMISVVKYLLDLGVDMNEPNAYGNTPLHVACYNGQDVVVNELIDCGAIVNQKNEKGFTPLHFAAASTHGALCLELLVGNGADVNMKSKDGKTPLHMTALHGRFSRSQTIIQSGAVIDCEDKNGNTPLHIAARYGHELLINTLITSGADTAKRGIHGMFPLHLAALSGFSDCCRKLLSSGFDIDTPDDFGRTCLHAAAAGGNLECLNLLLNTGADFNKKDKFGRSPLHYAAANCNYQCLFALVGSGASVNDLDERGCTPLHYAATSDTDGKCLEYLLRNDANPGIRDKQGYNAVHYSAAYGHRLCLQLIASETPLDVLMETSGTDMLSDSDNRATISPLHLAAYHGHHQALEVLVQSLLDLDVRNSSGRTPLDLAAFKGHVECVDVLINQGASILVKDYILKRTPIHAAATNGHSECLRLLIGNAEPQNAVDIQDGNGQTPLMLSVLNGHTDCVYSLLNKGANVDAKDKWGRTALHRGAVTGHEECVDALLQHGAKCLLRDSRGRTPIHLSAACGHIGVLGALLQSAASMDANPATADNHGYTALHWACYNGHETCVELLLEQEVFQKTEGNAFSPLHCAVINDNEGAAEMLIDTLGASIVNATDSKGRTPLHAAAFTDHVECLQLLLSHNAQVNSVDSTGKTPLMMAAENGQTNTVEMLVSSASAELTLQDNSKNTALHLACSKGHETSALLILEKITDRNLINATNAALQTPLHVAARNGLTMVVQELLGKGASVLAVDENGYTPALACAPNKDVADCLALILATMMPVSSSSPLSSLTFNAINRYTNTSKTVSFEALPIMRNEPSSYCSFNNIGGEQEYLYTDVDELNDSDSETY
binds	Golgin subfamily A member 3 (protein, UniProt Q08378 1-1498) MDGASAEQDGLQEDRSHSGPSSLPEAPLKPPGPLVPPDQQDKVQCAEVNRASTEGESPDGPGQGGLCQNGPTPPFPDPPSSLDPTTSPVGPDASPGVAGFHDNLRKSQGTSAEGSVRKEALQSLRLSLPMQETQLCSTDSPLPLEKEEQVRLQARKWLEEQLKQYRVKRQQERSSQPATKTRLFSTLDPELMLNPENLPRASTLAMTKEYSFLRTSVPRGPKVGSLGLPAHPREKKTSKSSKIRSLADYRTEDSNAGNSGGNVPAPDSTKGSLKQNRSSAASVVSEISLSPDTDDRLENTSLAGDSVSEVDGNDSDSSSYSSASTRGTYGILSKTVGTQDTPYMVNGQEIPADTLGQFPSIKDVLQAAAAEHQDQGQEVNGEVRSRRDSICSSVSLESSAAETQEEMLQVLKEKMRLEGQLEALSLEASQALKEKAELQAQLAALSTKLQAQVECSHSSQQRQDSLSSEVDTLKQSCWDLERAMTDLQNMLEAKNASLASSNNDLQVAEEQYQRLMAKVEDMQRSMLSKDNTVHDLRQQMTALQSQLQQVQLERTTLTSKLKASQAEISSLQSVRQWYQQQLALAQEARVRLQGEMAHIQVGQMTQAGLLEHLKLENVSLSQQLTETQHRSMKEKGRIAAQLQGIEADMLDQEAAFMQIQEAKTMVEEDLQRRLEEFEGERERLQRMADSAASLEQQLEQVKLTLLQRDQQLEALQQEHLDLMKQLTLTQEALQSREQSLDALQTHYDELQARLGELQGEAASREDTICLLQNEKIILEAALQAAKSGKEELDRGARRLEEGTEETSETLEKLREELAIKSGQVEHLQQETAALKKQMQKIKEQFLQQKVMVEAYRRDATSKDQLISELKATRKRLDSELKELRQELMQVHGEKRTAEAELSRLHREVAQVRQHMADLEGHLQSAQKERDEMETHLQSLQFDKEQMVAVTEANEALKKQIEELQQEARKAITEQKQKMRRLGSDLTSAQKEMKTKHKAYENAVGILSRRLQEALAAKEAADAELGQLRAQGGSSDSSLALHERIQALEAELQAVSHSKTLLEKELQEVIALTSQELEESREKVLELEDELQESRGFRKKIKRLEESNKKLALELEHEKGKLTGLGQSNAALREHNSILETALAKREADLVQLNLQVQAVLQRKEEEDRQMKHLVQALQASLEKEKEKVNSLKEQVAAAKVEAGHNRRHFKAASLELSEVKKELQAKEHLVQKLQAEADDLQIREGKHSQEIAQFQAELAEARAQLQLLQKQLDEQLSKQPVGNQEMENLKWEVDQKEREIQSLKQQLDLTEQQGRKELEGLQQLLQNVKSELEMAQEDLSMTQKDKFMLQAKVSELKNNMKTLLQQNQQLKLDLRRGAAKTRKEPKGEASSSNPATPIKIPDCPVPASLLEELLRPPPAVSKEPLKNLNSCLQQLKQEMDSLQRQMEEHALTVHESLSSWTPLEPATASPVPPGGHAGPRGDPQRHSQSRASKEGPGE

Second part, the binder before the results:

Binder	binding
Coatomer subunit delta (protein, UniProt P48444 1-511) MVLLAAAVCTKAGKAIVSRQFVEMTRTRIEGLLAAFPKLMNTGKQHTFVETESVRYVYQPMEKLYMVLITTKNSNILEDLETLRLFSRVIPEYCRALEENEISEHCFDLIFAFDEIVALGYRENVNLAQIRTFTEMDSHEEKVFRAVRETQEREAKAEMRRKAKELQQARRDAERQGKKAPGFGGFGSSAVSGGSTAAMITETIIETDKPKVAPAPARPSGPSKALKLGAKGKEVDNFVDKLKSEGETIMSSSMGKRTSEATKMHAPPINMESVHMKIEEKITLTCGRDGGLQNMELHGMIMLRISDDKYGRIRLHVENEDKKGVQLQTHPNVDKKLFTAESLIGLKNPEKSFPVNSDVGVLKWRLQTTEESFIPLTINCWPSESGNGCDVNIEYELQEDNLELNDVVITIPLPSGVGAPVIGEIDGEYRHDSRRNTLEWCLPVIDAKNKSGSLEFSIAGQPNDFFPVQVSFVSKKNYCNIQVTKVTQVDGNSPVRFSTETTFLVDKYEIL	binds
General transcription factor 3C polypeptide 4 (protein, UniProt Q9UKN8 1-822) MNTADQARVGPADDGPAPSGEEEGEGGGEAGGKEPAADAAPGPSAAFRLMVTRREPAVKLQYAVSGLEPLAWSEDHRVSVSTARSIAVLELICDVHNPGQDLVIHRTSVPAPLNSCLLKVGSKTEVAECKEKFAASKDPTVSQTFMLDRVFNPEGKALPPMRGFKYTSWSPMGCDANGRCLLAALTMDNRLTIQANLNRLQWVQLVDLTEIYGERLYETSYRLSKNEAPEGNLGDFAEFQRRHSMQTPVRMEWSGICTTQQVKHNNECRDVGSVLLAVLFENGNIAVWQFQLPFVGKESISSCNTIESGITSPSVLFWWEYEHNNRKMSGLIVGSAFGPIKILPVNLKAVKGYFTLRQPVILWKEMDQLPVHSIKCVPLYHPYQKCSCSLVVAARGSYVFWCLLLISKAGLNVHNSHVTGLHSLPIVSMTADKQNGTVYTCSSDGKVRQLIPIFTDVALKFEHQLIKLSDVFGSVRTHGIAVSPCGAYLAIITTEGMINGLHPVNKNYQVQFVTLKTFEEAAAQLLESSVQNLFKQVDLIDLVRWKILKDKHIPQFLQEALEKKIESSGVTYFWRFKLFLLRILYQSMQKTPSEALWKPTHEDSKILLVDSPGMGNADDEQQEEGTSSKQVVKQGLQERSKEGDVEEPTDDSLPTTGDAGGREPMEEKLLEIQGKIEAVEMHLTREHMKRVLGEVYLHTWITENTSIPTRGLCNFLMSDEEYDDRTARVLIGHISKKMNKQTFPEHCSLCKEILPFTDRKQAVCSNGHIWLRCFLTYQSCQSLIYRRCLLHDSIARHPAPEDPDWIKRLLQSPCPFCDSPVF	binds
